Assay results published in article PMC8443706, “Functionally diverse heteromeric traps for ligands of the transforming growth factor-β superfamily” (Scientific Reports, 2021).
These are yes or no findings as the source states them, for the method shown. For some assays here: Sequences can lack the tags named with a protein.

Protein sequences, listed by entry. Tags and fused reporters are not part of them. Residues count along the entry.
UniProt P36896, residues 24-126: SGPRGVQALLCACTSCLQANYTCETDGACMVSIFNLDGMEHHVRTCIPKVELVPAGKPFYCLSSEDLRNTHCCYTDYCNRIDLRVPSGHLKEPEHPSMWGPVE
UniProt O14793, residues 267-375: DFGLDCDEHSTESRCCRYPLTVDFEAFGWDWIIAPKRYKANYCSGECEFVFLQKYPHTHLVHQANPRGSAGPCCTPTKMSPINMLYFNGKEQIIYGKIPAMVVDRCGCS

How the values were obtained:
Assay in all cases: SPR; Biacore 8K, 37 °C; Fc-fusion receptor dimers captured by anti-human Fc antibody on a CM5 chip (100-150 RU); ligands injected in two-fold dilution series (300 s association, 600 s dissociation); HBS-EP+ supplemented with 350 mM NaCl and 0.5 mg/mL BSA; 1:1 Langmuir model with a term for mass transport; both purified
[1] = biological target: T1, ALK7-Fc:ALK7-Fc homodimer (human ALK7 ECD fused to human IgG1 Fc) (human) (UniProt Q8NER5)
T1 sequence: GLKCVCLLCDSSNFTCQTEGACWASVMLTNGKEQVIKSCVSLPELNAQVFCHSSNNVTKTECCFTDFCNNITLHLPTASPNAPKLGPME

[2] = biological target: ALK3-Fc:ALK3-Fc homodimer (human ALK3 ECD fused to human IgG1 Fc) (human) (UniProt P36894)
[3] = biological target: T2, IIB-Fc:ALK7-Fc heterodimer (human ActRIIB ECD-Fc paired with human ALK7 ECD-Fc) (human) (UniProt Q13705+Q8NER5)
T2 sequence 1: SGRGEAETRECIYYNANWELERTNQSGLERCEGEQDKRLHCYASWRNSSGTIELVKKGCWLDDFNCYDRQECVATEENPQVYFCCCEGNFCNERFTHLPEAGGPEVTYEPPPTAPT
T2 sequence 2: T1 sequence

[4] = biological target: ALK4-Fc:ALK4-Fc homodimer (R&D Systems Cat #808-AR-100) (human) (UniProt P36896)
[5] = biological target: IIB-Fc:ALK4-Fc heterodimer (human ActRIIB ECD-Fc paired with human ALK4 ECD-Fc) (human) (UniProt Q13705+P36896)
[6] = biological target: T3, ALK3-Fc:ALK3-Fc homodimer (human ALK3 ECD fused to human IgG1 Fc) (human), P36894; conditions: remark: other sources report otherwise
T3 chain: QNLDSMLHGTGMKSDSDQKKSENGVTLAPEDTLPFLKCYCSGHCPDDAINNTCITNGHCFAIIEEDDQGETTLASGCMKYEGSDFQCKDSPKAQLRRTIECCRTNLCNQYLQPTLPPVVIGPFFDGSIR

For “growth differentiation factor 8 (GDF8, or myostatin) (from UniProt O14793 267-375) (ligand)”, the binding [1] was “no binding” and the binding [2] was “no binding”.

B1: activin A (ligand, human, UniProt P08476 311-426, looked up)
chain: GLECDGKVNICCKKQFFVSFKDIGWNDWIIAPSGYHANYCEGECPSHIAGTSGSSLSFHSTVINHYRMRGHSPFANLKSCCVPTKLRPMSMLYYDDGQNIIKKDIQNMIVEECGCS
notes: source: generated in house
B1 was tested, and the binding [1] was “no binding”.

B2: GDF11 (ligand, human, UniProt O95390 299-407, looked up)
chain: NLGLDCDEHSSESRCCRYPLTVDFEAFGWDWIIAPKRYKANYCSGQCEYMFMQKYPHTHLVQQANPRGSAGPCCTPTKMSPINMLYFNDKQQIIYGKIPGMVVDRCGCS
notes: source: generated in house
With B2 the binding [1] was “no binding” and the binding [2] was “no binding”.

B3: BMP4 (ligand, human, UniProt P12644 293-408, looked up)
chain: SPKHHSQRARKKNKNCRRHSLYVDFSDVGWNDWIVAPPGYQAFYCHGDCPFPLADHLNSTNHAIVQTLVNSVNSSIPKACCVPTELSAISMLYLDEYDKVVLKNYQEMVVEGCGCR
notes: source: bought: R&D Systems
B3 was tested, and the binding [1] was “no binding”, the binding [3] was “no binding” and the binding [4] was “no binding”. The binding [5] was “no binding”.

B4: BMP6 (ligand, human, UniProt P22004 375-513, looked up)
chain: SASSRRRQQSRNRSTQSQDVARVSSASDYNSSELKTACRKHELYVSFQDLGWQDWIIAPKGYAANYCDGECSFPLNAHMNATNHAIVQTLVHLMNPEYVPKPCCAPTKLNAISVLYFDDNSNVILKKYRNMVVRACGCH
notes: source: bought: R&D Systems
B4 was tested, and the binding [1] was “no binding” and the binding [4] was “no binding”.

B5: BMP7 (ligand, human, UniProt P18075 293-431, looked up)
chain: STGSKQRSQNRSKTPKNQEALRMANVAENSSSDQRQACKKHELYVSFRDLGWQDWIIAPEGYAAYYCEGECAFPLNSYMNATNHAIVQTLVHFINPETVPKPCCAPTQLNAISVLYFDDSSNVILKKYRNMVVRACGCH
notes: source: bought: R&D Systems
With B5 the binding [6] was “no binding”, the binding [1] was “no binding” and the binding [4] was “no binding”.

B6: BMP9 (ligand, human, UniProt Q9UK05 320-429, looked up)
chain: SAGAGSHCQKTSLRVNFEDIGWDSWIIAPKEYEAYECKGGCFFPLADDVTPTKHAIVQTLVHLKFPTKVGKACCVPTKLSPISVLYKDDMGVPTLKYHYEGMSVAECGCR
notes: source: generated in house
In the case of B6, the binding [1] is reported as “no binding”, the binding [2] is reported as “no binding” and the binding [4] is reported as “no binding”.

B7: BMP10 (ligand, human, UniProt O95393 317-424, looked up)
chain: NAKGNYCKRTPLYIDFKEIGWDSWIIAPPGYEAYECRGVCNYPLAEHLTPTKHAIIQALVHLKNSQKASKACCVPTKLEPISILYLDKGVVTYKFKYEGMAVSECGCR
notes: source: bought: R&D Systems
With B7 the binding [1] was “no binding”, the binding [2] was “no binding” and the binding [4] was “no binding”.

B8: activin B (ligand, human, UniProt P09529 293-407, looked up)
chain: GLECDGRTNLCCRQQFFIDFRLIGWNDWIIAPTGYYGNYCEGSCPAYLAGVPGSASSFHTAVVNQYRMRGLNPGTVNSCCIPTKLSTMSMLYFDDEYNIVKRDVPNMIVEECGCA
notes: source: generated in house
In the case of B8, the binding [1] is reported as “no binding”, the binding [2] is reported as “no binding” and the binding [4] is reported as “no binding”.

B9: GDF3 (ligand, human, UniProt Q9NR23 251-364, looked up)
chain: AAIPVPKLSCKNLCHRHQLFINFRDLGWHKWIIAPKGFMANYCHGECPFSLTISLNSSNYAFMQALMHAVDPEIPQAVCIPTKLSPISMLYQDNNDNVILRHYEDMVVDECGCG
notes: source: bought: R&D Systems
For B9, the binding [1] was “no binding”, the binding [2] was “no binding” and the binding [4] was “no binding”.
